The record followed here is the supplement of paper PMC7024190.

Structures can show the parent of a compound that is named as a salt. This is one part of the list. This data set is noisy: repeats of one test often differ as much as different tests do.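 A first-round screen of about ten thousand compounds sought those raising reporter output, using human embryonic kidney cells briefly transfected with a plasmid carrying a Renilla luciferase gene driven by the HSV-TK promoter.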

This assay concerns HEK 293FT. Put plainly: log relative Renilla luciferase luminescence (reporter expression vs reference, reference not stated) (log (base not stated)); higher = higher recombinant reporter expression. Conditions: 10 µM; time after transfection 48 h.
In the case of `Nc1nc2c(ncn2COCCO)c(=O)[nH]1` [Acyclovir], the log was -0.0188.

As for `CNCCC(Oc1ccc(C(F)(F)F)cc1)c1ccccc1` (centres undefined) [Fluoxetine hydrochloride], the log worked out at 0.0168.

As to `O/N=C/c1ccc(-c2ccc(O)c(F)c2)c(Cl)c1O`, the log came to 0.007.

Turning to `CCOC(=O)c1ncc2[nH]c3cccc(OC(C)C)c3c2c1C`, the log was -0.139.

Turning to `Cc1nn(C)c2nc(NNC(=O)Nc3cc(Cl)nc(Cl)c3)cc(C(C)C)c12`, the log is -0.0623.

Regarding `Cn1cnc2c(NCc3ccccc3)nc(NCCO)nc21` [Olomoucine], the log was -0.162.

`N#C/C(=C\c1ccc(O)c(O)c1)C(=O)Nc1ccccc1`: the log came to 0.0179.

As to `CC[C@H](C)C(=O)O[C@H]1C[C@H](O)C=C2C=C[C@H](C)[C@H](CC[C@@H](O)C[C@@H](O)CC(=O)O)[C@H]21` [Pravastatin sodium salt], the log is -0.247.

As for `N#Cc1ccc(NCCNCC(=O)N2CCC[C@H]2C#N)nc1` [NVP DPP 728 dihydrochloride], the log was -0.0536.

For the molecule `CC1=C(/C=C/C(C)=C/C=C/C(C)=C/C(=O)O)C(C)(C)CCC1` [Retinoic acid], the log amounted to 0.0827.

For `FC(F)(F)c1ccc(/C=C/c2nc(COc3ccc(CCCCn4ccnn4)cc3)co2)cc1`, the log was -1.38.

In the case of `CC(Cc1ccccc1)(NC(=O)CN)c1ccccc1` (centres undefined) [Remacemide hydrochloride], the log amounted to 0.217.

Turning to `COC(=O)C1=C(C)NC(C)=C([N+](=O)[O-])C1c1ccccc1C(F)(F)F` (racemic), the log was 0.0254.

In the case of `CCOC(=O)c1cnc2c(cnn2CC)c1NN=C(C)C` [Etazolate hydrochloride], the log is 0.0515.
